# Data from patent US20250275964A1, “METHODS OF INHIBITING LIVER-TYPE GLUTAMINASE, GLS2” (CORNELL UNIVERSITY, priority 2019, published 2025).
# For at least one compound, name, drawing or mass did not settle the structure.
# Tested on: breast cancer cell lines
# Test: 6-day cell proliferation assay, collection of breast cancer cell lines
# Format: cell-based, human
# Conditions: GLS2-overexpressing derivatives of MDA-MB-231 and TSE cells
# Protocol: Human breast cancer cell lines MCF7, BT-474, T-47D, MDA-MB-453, MDA-MB-231, Hs 578T, HCC38, SK-BR-3, and DU4475 were purchased from the American Type Culture Collection (ATCC) and no additional cell authentication was performed. The TSE human breast cancer cell line was supplied by Dr. Steven Abcouwer (University of Michigan). All breast cancer cells were cultured at 37° C. under a 5% CO2 atmosphere in RPMI 1640 medium containing 2 mM glutamine (Gibco) and supplemented with 10% fetal bovine serum (FBS) (Gibco). The 293T cell line (ATCC) used for generating lentivirus particles was cultured as above but using DMEM, high glucose (Gibco).
# Culture medium was added to 12-well plates (1 ml/well) and wells were seeded with cells at Day 0 as follows. MCF7, T-47D, BT-474, HCC38 cells: […] cells/well. MDA-MB-453 and MDA-MB-231 cells: 1×10^4 cells/well. TSE and Hs 578T cells: 0.3×10^4 cells/well. After 16 hours, culture medium was replaced with fresh medium supplemented with appropriate concentrations of inhibitors and was subsequently replaced every 48 hours. On Day 6 cells were trypsinized and suspended in an appropriate volume of culture medium, and the total number of cells per well was determined using a hemocytometer or a TC20 Automated Cell Counter (Bio-Rad).
smiles,measurement,value
CN(C)c1ccc(C2Nc3ccc4ccccc4c3C3=C2C(=O)CC(C)(C)C3)cc1Br (stereo not shown) [Compound 968],effect of GLS2 overexpression on the EC50 values,little effect
